This is one part of the list.

Sequences of proteins named here, by UniProt entry; tags and fusion partners are left off. A change or cut given only in a name is not applied to a line headed by its entry.
UniProt Q15149: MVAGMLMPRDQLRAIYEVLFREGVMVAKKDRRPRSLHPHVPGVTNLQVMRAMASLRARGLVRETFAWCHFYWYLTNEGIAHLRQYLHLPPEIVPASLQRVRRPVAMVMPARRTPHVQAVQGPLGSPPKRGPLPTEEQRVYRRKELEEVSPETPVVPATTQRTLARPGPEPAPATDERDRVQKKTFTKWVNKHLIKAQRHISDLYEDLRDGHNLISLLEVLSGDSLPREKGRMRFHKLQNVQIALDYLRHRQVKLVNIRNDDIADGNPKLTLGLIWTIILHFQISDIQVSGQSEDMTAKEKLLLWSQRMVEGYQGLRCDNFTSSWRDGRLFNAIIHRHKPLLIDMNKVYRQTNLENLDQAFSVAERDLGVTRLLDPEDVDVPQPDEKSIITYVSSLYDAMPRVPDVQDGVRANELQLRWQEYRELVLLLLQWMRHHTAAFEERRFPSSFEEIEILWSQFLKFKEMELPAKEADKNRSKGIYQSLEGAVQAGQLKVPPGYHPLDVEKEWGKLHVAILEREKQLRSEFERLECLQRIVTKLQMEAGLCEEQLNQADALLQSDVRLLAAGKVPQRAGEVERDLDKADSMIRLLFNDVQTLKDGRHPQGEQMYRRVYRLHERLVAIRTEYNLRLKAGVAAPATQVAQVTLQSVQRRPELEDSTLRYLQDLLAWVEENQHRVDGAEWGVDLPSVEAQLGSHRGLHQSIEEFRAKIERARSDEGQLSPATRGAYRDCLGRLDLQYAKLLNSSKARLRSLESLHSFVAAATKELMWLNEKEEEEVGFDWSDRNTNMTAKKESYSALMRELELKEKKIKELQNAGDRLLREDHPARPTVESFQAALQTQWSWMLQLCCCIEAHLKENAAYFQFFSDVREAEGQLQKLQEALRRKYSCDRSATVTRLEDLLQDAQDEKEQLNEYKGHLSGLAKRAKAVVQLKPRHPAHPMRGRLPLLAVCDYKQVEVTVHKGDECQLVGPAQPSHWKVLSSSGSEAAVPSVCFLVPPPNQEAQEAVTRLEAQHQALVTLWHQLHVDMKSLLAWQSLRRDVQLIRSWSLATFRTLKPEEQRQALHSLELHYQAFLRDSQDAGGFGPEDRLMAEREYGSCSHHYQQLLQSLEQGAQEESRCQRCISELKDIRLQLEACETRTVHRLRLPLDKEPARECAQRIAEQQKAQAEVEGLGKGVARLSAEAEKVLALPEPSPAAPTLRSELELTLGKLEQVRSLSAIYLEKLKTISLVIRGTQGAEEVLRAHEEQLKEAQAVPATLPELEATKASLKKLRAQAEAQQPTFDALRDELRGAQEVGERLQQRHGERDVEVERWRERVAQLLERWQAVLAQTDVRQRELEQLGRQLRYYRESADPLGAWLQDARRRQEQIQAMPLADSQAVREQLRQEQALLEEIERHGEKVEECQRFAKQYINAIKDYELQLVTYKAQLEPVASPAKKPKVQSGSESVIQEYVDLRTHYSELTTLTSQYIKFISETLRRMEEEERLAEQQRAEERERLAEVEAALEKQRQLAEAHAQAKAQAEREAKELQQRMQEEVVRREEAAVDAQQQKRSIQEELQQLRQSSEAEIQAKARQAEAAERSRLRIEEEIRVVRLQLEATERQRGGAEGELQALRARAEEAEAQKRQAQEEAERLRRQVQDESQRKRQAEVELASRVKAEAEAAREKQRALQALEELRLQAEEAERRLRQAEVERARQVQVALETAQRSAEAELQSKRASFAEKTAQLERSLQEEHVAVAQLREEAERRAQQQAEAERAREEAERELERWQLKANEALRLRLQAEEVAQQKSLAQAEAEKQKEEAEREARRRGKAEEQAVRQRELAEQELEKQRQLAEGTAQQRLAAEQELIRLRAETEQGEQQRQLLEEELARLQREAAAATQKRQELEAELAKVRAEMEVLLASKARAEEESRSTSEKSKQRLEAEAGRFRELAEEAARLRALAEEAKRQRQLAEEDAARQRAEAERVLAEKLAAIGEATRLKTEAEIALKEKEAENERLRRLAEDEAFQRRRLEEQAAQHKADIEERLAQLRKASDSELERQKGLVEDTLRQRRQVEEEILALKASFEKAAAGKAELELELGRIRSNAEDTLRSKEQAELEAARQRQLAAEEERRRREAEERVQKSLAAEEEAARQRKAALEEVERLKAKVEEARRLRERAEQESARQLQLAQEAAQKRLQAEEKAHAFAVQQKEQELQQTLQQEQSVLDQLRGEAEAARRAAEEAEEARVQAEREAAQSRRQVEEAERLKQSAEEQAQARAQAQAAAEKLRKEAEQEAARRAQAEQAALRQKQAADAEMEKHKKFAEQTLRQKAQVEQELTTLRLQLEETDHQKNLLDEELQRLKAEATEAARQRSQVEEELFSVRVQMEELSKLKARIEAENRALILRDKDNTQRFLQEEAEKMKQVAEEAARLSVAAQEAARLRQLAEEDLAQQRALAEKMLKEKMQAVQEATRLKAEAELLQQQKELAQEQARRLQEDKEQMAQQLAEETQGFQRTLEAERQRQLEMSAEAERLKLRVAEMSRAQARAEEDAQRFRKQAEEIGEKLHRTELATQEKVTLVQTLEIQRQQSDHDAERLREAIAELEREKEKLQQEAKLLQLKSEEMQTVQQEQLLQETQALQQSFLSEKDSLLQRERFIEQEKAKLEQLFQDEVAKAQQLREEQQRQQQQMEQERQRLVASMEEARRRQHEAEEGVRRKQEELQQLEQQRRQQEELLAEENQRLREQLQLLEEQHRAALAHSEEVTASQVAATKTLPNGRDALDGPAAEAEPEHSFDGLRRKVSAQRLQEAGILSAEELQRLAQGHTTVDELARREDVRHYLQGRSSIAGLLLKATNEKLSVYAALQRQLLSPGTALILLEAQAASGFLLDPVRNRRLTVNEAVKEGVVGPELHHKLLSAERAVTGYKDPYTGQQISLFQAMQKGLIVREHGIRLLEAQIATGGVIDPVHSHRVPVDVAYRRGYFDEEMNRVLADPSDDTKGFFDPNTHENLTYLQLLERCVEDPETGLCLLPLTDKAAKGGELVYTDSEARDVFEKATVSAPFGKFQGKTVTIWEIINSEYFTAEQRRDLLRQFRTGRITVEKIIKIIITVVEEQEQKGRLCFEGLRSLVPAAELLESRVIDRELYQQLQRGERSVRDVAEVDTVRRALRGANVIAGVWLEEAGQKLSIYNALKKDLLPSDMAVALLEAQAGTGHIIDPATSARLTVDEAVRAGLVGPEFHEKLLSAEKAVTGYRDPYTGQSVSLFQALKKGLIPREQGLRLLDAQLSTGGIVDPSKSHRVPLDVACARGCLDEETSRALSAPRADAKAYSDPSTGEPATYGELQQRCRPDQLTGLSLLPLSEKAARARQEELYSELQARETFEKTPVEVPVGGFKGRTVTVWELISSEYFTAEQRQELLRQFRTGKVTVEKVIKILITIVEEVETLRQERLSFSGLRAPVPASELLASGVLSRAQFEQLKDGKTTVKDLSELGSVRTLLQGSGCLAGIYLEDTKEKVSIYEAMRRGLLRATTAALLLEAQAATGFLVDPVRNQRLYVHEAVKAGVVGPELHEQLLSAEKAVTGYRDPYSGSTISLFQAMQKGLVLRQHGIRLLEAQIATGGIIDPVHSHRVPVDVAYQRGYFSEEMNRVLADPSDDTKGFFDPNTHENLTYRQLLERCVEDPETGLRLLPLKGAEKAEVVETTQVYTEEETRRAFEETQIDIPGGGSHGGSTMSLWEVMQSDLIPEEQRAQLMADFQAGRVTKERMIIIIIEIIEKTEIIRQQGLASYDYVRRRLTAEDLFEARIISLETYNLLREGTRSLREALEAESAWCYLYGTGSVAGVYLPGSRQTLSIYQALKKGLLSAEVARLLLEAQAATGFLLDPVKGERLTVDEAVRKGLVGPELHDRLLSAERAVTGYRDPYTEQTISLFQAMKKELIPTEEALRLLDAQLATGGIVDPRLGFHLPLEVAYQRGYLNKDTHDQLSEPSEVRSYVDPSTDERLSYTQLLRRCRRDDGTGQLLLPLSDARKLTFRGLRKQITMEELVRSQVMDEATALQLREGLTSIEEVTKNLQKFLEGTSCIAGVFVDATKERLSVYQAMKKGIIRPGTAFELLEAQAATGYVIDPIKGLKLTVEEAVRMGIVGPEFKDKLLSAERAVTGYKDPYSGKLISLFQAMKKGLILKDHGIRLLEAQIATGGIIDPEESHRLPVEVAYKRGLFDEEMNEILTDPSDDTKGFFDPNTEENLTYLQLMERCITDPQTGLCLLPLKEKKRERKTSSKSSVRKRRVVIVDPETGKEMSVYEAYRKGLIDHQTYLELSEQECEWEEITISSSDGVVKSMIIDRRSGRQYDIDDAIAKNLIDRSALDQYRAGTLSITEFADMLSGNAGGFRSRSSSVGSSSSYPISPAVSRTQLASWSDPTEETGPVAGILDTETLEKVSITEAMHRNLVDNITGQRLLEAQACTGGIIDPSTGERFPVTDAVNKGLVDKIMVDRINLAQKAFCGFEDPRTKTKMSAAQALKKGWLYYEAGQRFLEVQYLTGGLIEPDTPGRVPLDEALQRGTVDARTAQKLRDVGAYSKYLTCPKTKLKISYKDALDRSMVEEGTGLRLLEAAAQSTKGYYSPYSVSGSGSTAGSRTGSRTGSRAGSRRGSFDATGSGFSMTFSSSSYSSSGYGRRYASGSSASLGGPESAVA
UniProt P08237: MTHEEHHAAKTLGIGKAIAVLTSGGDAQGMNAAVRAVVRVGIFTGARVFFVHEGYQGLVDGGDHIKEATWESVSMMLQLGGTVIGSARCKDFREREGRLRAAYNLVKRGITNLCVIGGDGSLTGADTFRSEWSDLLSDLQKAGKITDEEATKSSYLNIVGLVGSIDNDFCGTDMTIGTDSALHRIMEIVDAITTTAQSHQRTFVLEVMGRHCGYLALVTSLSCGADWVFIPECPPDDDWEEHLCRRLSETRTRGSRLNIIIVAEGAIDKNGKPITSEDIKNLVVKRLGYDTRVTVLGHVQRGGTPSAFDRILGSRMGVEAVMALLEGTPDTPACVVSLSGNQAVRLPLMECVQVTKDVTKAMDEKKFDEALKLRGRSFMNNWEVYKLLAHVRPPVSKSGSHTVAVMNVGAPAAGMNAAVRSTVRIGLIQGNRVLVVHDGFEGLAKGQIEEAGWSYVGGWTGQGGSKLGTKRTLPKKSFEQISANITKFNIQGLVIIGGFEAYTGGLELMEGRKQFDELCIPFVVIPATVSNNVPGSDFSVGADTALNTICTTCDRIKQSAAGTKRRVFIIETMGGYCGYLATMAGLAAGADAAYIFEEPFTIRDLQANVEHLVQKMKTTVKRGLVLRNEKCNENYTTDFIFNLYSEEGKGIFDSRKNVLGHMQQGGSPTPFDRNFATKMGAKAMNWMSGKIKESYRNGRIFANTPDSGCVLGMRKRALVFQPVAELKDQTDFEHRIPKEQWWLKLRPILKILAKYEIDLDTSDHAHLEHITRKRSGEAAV
UniProt Q93100: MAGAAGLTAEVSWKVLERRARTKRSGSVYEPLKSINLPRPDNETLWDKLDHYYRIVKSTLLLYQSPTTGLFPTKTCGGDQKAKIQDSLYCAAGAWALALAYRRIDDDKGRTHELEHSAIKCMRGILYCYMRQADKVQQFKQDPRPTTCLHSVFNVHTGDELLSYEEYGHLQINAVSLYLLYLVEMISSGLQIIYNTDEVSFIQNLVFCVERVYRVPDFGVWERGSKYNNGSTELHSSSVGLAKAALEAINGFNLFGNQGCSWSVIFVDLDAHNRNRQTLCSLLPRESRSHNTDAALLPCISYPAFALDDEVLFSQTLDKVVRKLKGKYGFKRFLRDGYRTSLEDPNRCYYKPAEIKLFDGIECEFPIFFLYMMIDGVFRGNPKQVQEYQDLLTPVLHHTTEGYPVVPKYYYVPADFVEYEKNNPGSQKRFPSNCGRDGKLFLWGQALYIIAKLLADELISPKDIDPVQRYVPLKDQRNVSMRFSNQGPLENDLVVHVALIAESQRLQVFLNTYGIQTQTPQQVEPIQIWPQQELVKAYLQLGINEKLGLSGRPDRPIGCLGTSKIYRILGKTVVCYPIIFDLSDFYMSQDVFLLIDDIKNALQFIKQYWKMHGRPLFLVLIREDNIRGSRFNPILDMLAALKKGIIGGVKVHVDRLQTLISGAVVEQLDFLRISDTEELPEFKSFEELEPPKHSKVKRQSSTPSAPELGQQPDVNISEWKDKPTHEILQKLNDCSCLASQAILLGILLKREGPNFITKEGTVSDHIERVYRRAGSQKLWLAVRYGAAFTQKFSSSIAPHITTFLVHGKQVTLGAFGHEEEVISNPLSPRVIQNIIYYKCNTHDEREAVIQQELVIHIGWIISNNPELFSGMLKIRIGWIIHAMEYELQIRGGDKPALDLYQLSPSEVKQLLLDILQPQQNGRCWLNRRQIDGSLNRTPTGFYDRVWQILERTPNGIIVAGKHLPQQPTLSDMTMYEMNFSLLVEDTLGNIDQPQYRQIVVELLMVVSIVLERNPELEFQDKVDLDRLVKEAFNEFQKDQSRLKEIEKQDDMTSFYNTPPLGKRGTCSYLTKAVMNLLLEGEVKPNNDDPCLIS

Compound in the experiment: c1cn2cc(-c3ccc4cn[nH]c4c3)nc(Nc3ccc(N4CCOCC4)cc3)c2n1 [entospletinib]
Kind of experiment: log2 fold change, soluble protein after heating vs DMSO (PISA); higher = thermal stabilisation; K562 cells, 10 uM, 30 min; active = over 0.2 and 3.5 SD of the protein, either way, in both replicates (recomputed). In outline:
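Soluble protein was defined as the supernatant after 21,000xg for 90 min. It came from K562 cells at 2×10^6 cells/mL given 10 μM compound for 30 min, heated in aliquots for 3 min across 48°C-58°C, pooled, and extracted in PBS with 0.5% NP-40 at 4°C, and was quantified by TMTpro 16plex LC-MS/MS with equalised channel sums. Thermal stability against control samples, from duplicates, is reported as log2 fold change.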
PIGM (UniProt Q9H3S5): the log2 fold change is inactive: -0.167.
For PLEC (UniProt Q15149) the value was inactive: 0.043; for PGP (UniProt A6NDG6), inactive: 0; for PFAS (UniProt O15067), active: -0.399.
For PIGA (UniProt P37287) the value was inactive: 0.026; for PFKFB2 (UniProt O60825), inactive: -0.028; for PLEKHA5 isoform 6 (UniProt Q9HAU0), inactive: 0.468.
Then PI4KB (UniProt Q9UBF8), with inactive: 0.116; and PGK1 (UniProt P00558), with inactive: 0.034; and PFKM isoform 3 (UniProt P08237), with inactive: -0.027.
For the target PIH1D1 (UniProt Q9NWS0), the log2 fold change was inactive: -0.023.
Take PIGB (UniProt Q92521): the log2 fold change is inactive: 0.075.
Then PFKFB4 (UniProt Q16877), with inactive: -0.022.
Then PIGL (UniProt Q9Y2B2), with inactive: -0.021; and PHGDH (UniProt O43175), with inactive: 0.004.
For PLA2G12A (UniProt Q9BZM1) the value was inactive: -0.053.
Regarding PIGQ (UniProt Q9BRB3), the log2 fold change was inactive: 0.156.
Then PIGN (UniProt O95427), with inactive: -0.022; and PKP3 isoform 2 (UniProt Q9Y446), with inactive: 0.199.
Turning to PGAM5 (UniProt Q96HS1), the log2 fold change was inactive: 0.093.
Then PGM2L1 (UniProt Q6PCE3), with inactive: -0.001.
Then PHF23 (UniProt Q9BUL5), with inactive: -0.053; and PFN3 (UniProt P60673), with inactive: -0.295.
For PI4KB isoform 2 (UniProt Q9UBF8) the value was inactive: 0.085.
PFKP (UniProt Q01813): the log2 fold change is inactive: 0.
PHKB isoform 3 (UniProt Q93100): the log2 fold change was inactive: -0.04.
Then PIGS (UniProt Q96S52), with inactive: 0.005.
On to PFKFB3 isoform 4 (UniProt Q16875), for which the log2 fold change is inactive: -0.042.
Then PKHD1 (UniProt P08F94), with inactive: 0.072.

These data come from the supplement of paper PMC10849652.
